For three molecules, binding results are on record in patent US20180311369A1 (WRIGHT STATE UNIVERSITY, published 2018).

Sequences of proteins named here, by UniProt entry; tags and fusion partners are left off. A change or cut given only in a name is not applied to a line headed by its entry.
UniProt Q4L1J4: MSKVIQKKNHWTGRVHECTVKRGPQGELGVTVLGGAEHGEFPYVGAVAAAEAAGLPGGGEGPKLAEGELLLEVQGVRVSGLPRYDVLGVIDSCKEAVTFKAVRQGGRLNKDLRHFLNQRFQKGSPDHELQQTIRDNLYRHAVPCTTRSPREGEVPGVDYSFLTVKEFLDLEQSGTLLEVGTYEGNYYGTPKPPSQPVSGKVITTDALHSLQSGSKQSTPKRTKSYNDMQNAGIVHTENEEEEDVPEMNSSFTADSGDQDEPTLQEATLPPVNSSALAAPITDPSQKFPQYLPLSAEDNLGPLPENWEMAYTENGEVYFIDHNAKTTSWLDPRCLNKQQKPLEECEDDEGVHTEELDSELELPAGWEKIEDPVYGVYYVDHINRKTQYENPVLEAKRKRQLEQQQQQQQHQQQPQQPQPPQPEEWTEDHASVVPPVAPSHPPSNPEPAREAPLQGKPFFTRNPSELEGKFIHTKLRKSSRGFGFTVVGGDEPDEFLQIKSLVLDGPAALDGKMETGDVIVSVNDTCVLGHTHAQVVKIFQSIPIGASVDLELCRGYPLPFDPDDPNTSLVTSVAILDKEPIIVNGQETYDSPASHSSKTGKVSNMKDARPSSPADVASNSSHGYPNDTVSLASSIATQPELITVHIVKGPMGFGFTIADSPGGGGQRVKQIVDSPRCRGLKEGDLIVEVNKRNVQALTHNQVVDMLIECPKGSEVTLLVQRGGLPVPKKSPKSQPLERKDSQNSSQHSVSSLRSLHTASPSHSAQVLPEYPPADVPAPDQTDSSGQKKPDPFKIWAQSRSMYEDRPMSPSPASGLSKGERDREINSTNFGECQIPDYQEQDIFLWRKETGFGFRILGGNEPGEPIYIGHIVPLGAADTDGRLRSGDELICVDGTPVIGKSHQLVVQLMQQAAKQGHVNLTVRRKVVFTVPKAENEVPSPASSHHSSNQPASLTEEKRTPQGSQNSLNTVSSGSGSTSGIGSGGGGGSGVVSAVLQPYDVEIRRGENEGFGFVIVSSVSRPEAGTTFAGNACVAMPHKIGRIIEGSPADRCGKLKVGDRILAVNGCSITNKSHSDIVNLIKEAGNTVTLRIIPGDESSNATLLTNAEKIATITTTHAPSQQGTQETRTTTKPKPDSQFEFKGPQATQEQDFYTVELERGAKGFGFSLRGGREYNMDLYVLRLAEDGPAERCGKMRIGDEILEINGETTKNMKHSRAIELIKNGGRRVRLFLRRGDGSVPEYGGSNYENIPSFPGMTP

Assay [1] addresses MAGI-1 PDZ1 domain (Rattus norvegicus (Rat)) (UniProt Q4L1J4). The assay can be described thus: ligand binding assay (figure legend).
Assay [2] concerns the target MAGI-1 PDZ3 domain (Rattus norvegicus (Rat)) (UniProt Q4L1J4). The assay can be described thus: ligand binding assay (figure legend).

No constants are given. Whether binding was seen depends on the method and setting. Some binding calls cover weakened binding; strength is not graded here.

B1: TAT-HPV E6 (peptide)
peptide: GRKKRRQRRRPPQSRTRRETQL
notes: also called TAT-E6
On to B1, for which the binding entry in assay [1] is listed as “binds”.

B2: TAT-NET1 (peptide)
peptide: GRKKRRQRRRPPQGGKKKETLV
notes: also called TAT-PDZ1 peptide
As to B2, in assay [1], the binding result is “binds”.

B3: TAT-ESAM (peptide)
peptide: GRKKRRQRRRPPQAQSQAGSLV
notes: also called TAT-PDZ3 peptide
Take B3: in assay [2], the binding entry is recorded as “binds”.
